Assay results as given in US10526371B2, “Hydrogel-forming peptides” (Universiteit Gent, priority 2015, dated 2020).
Part of at least one peptide drawing is inferred or uncertain, most often the ends. Square brackets hold non-standard residues; d marks the D form. Peptide text beside a SMILES is read from it. β3hF = N[C@H](CC(=O)O)Cc1ccccc1

Test: Peptide self-assembly / gelation conditions
Type: physicochemical
Settings: for time of gelation (self-supporting gel formed): TFA salt, at its own gelation condition
Description: Peptide self-assembly was analyzed in i) a PBS solution (10 mM), ii) a PBS/mQ mixture (1:1 v:v, mQ water with a resistivity of […]) or iii) a NaCl aqueous solution (150 mM). The TFA salt of reference peptide SEQ NO. 23 (1 mg) was dissolved in 50 μl mQ water, followed by the addition of 50 μl PBS solution. This mixture was left to rest overnight, resulting in a 1% w/v hydrogel. The TFA salt of mixed α/β-peptides SEQ ID NO 1 and SEQ ID NO 2 (2 mg) was dissolved in mQ (100 μL) and PBS/mQ mixture (100 μL), respectively. […] The TFA salt of mixed α/β-peptide SEQ ID NO 3 (3 mg) was dissolved in PBS (100 μL) to probe gelation. All self-assembled gels were analyzed by circular dichroism (CD) and Fourier transform infrared (FT-IR) spectroscopy, as well as cryogenic transmission electron microscopy (Cryo-TEM).
(SEQ ID NO:22 (=10-mer)), 100 μl mQ water was added to 2 mg of TFA-salt of pure peptide, then vortexed and sonicated. As a result, a transparent self-supporting gel was formed immediately. A gelation condition of 2 w/v % in mQ water was found.
for H-Fβ^2hFEFQFK-NH2 (SEQ ID NO:19), 100 μl of PBS was added to 2 mg of TFA-salt of pure peptide, then vortexed and sonicated. After overnight resting, a self-supporting gel was formed. A gelation condition of 2 w/v % in PBS was determined.

SMILES | time of gelation (self-supporting gel formed) | Gelation condition % (w/v) (in mQ) | Gelation condition % (w/v) (in mQ/PBS 1:1) | Gelation condition % (w/v) (in PBS)
NCCCC[C@H](NC(=O)[C@H](Cc1ccccc1)NC(=O)C[C@H](Cc1ccccc1)NC(=O)[C@H](CCC(N)=O)NC(=O)[C@H](Cc1ccccc1)NC(=O)C[C@H](Cc1ccccc1)NC(=O)[C@H](CCC(=O)O)NC(=O)[C@@H](N)Cc1ccccc1)C(=O)O [SEQ ID NO 1, H-Phe-Glu-β^3hPhe-Phe-Gln-β^3hPhe-Phe-Lys-OH] (H-FE[β3hF]FQ[β3hF]FK-OH) | almost instantaneously | 2% (mQ) % (w/v) | – | –
NCCCC[C@H](NC(=O)[C@H](Cc1ccccc1)NC(=O)C[C@H](Cc1ccccc1)NC(=O)[C@H](CCC(N)=O)NC(=O)[C@H](Cc1ccccc1)NC(=O)C[C@H](Cc1ccccc1)NC(=O)[C@H](CCC(=O)O)NC(=O)[C@@H](N)Cc1ccccc1)C(N)=O [SEQ ID NO 2, H-Phe-Glu-β^3hPhe-Phe-Gln-β^3hPhe-Phe-Lys-NH2] (H-FE[β3hF]FQ[β3hF]FK-NH2) | almost instantaneously | – | 2% (mQ/PBS 1:1 % (w/v) | –
NCCCC[C@H](NC(=O)[C@H](Cc1ccc(O)cc1)NC(=O)C[C@H](Cc1ccccc1)NC(=O)[C@H](CCC(N)=O)NC(=O)[C@H](Cc1ccc(O)cc1)NC(=O)C[C@H](Cc1ccccc1)NC(=O)[C@H](CCC(=O)O)NC(=O)[C@@H](N)Cc1ccccc1)C(N)=O [SEQ ID NO 3, H-Phe-Glu-β^3hPhe-Tyr-Gln-β^3hPhe-Tyr-Lys-NH2] (H-FE[β3hF]YQ[β3hF]YK-NH2) | – | – | – | 2.5% (PBS) % (w/v)
